Publication doi:10.1101/2025.04.22.650084
Results are given in words; binding and its absence hold for the method and conditions named. For some of these results: A result given as binding can be weak or reduced; the word gives no strength. For some of these results: Sequences can lack the tags named with a protein. For some of these results: Binding seen in cells or lysates may run through a third protein. Each block holds one molecule with its values, some of them ahead of it.

How the values were obtained:
[1] = biological target: T1, U1-70k (full-length, yeast two-hybrid fusion) (Arabidopsis thaliana) (UniProt Q42404); assay: two-hybrid
T1 sequence: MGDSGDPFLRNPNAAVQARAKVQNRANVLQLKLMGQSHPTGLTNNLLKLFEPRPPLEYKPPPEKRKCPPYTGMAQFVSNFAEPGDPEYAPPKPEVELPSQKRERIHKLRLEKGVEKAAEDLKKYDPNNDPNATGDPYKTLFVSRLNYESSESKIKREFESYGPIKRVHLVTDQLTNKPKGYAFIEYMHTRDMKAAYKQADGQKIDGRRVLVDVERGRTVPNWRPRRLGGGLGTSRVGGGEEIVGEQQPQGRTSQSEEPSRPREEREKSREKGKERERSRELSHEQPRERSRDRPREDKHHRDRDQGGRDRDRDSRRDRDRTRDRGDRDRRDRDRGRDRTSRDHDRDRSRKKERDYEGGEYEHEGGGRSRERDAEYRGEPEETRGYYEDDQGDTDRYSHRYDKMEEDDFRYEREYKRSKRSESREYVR

[2] = biological target: T2, cYFP-U1-70k (Arabidopsis thaliana) (UniProt Q42404); assay: split reporter
T2 sequence: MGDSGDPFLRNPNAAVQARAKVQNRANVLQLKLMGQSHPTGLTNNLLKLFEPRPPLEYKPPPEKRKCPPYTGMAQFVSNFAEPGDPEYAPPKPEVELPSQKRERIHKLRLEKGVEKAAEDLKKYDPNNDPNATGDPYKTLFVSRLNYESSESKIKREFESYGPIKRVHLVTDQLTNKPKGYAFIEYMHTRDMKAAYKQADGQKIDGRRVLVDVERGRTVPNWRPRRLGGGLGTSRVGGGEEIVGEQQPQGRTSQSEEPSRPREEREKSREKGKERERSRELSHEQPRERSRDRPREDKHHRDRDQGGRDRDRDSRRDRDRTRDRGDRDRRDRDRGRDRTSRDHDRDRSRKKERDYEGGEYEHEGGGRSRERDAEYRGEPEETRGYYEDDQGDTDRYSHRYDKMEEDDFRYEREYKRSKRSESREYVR

[3] = biological target: Flag-4Myc-FVE; assay: co-IP
[4] = biological target: U1-70kΔ5aa (BiFC fusion) (Arabidopsis thaliana) (UniProt Q42404); assay: split reporter
[5] = biological target: N-terminal region of U1-70k (yeast two-hybrid fusion) (Arabidopsis thaliana); assay: two-hybrid
[6] = biological target: U1-70kΔ5aa (five-aa deleted U1-70k variant, yeast two-hybrid fusion) (Arabidopsis thaliana) (UniProt Q42404); assay: two-hybrid

- binding [1]: binds
Molecule: FVE (Flowering locus VE, yeast two-hybrid fusion)

- binding [1]: no binding
Molecule: DCL2 (yeast two-hybrid fusion)

- binding [2]: binds
Molecule: nYFP-FVE

- binding [3]: binds
B1: U1-70k (endogenous) (protein, UniProt Q42404 1-427)
chain: MGDSGDPFLRNPNAAVQARAKVQNRANVLQLKLMGQSHPTGLTNNLLKLFEPRPPLEYKPPPEKRKCPPYTGMAQFVSNFAEPGDPEYAPPKPEVELPSQKRERIHKLRLEKGVEKAAEDLKKYDPNNDPNATGDPYKTLFVSRLNYESSESKIKREFESYGPIKRVHLVTDQLTNKPKGYAFIEYMHTRDMKAAYKQADGQKIDGRRVLVDVERGRTVPNWRPRRLGGGLGTSRVGGGEEIVGEQQPQGRTSQSEEPSRPREEREKSREKGKERERSRELSHEQPRERSRDRPREDKHHRDRDQGGRDRDRDSRRDRDRTRDRGDRDRRDRDRGRDRTSRDHDRDRSRKKERDYEGGEYEHEGGGRSRERDAEYRGEPEETRGYYEDDQGDTDRYSHRYDKMEEDDFRYEREYKRSKRSESREYVR

- binding [4]: binds
B2: nYFP-SGS3 (protein, UniProt Q9LDX1 1-625)
chain: MSSRAGPMSKEKNVQGGYRPEVEQLVQGLAGTRLASSQDDGGEWEVISKKNKNKPGNTSGKTWVSQNSNPPRAWGGQQQGRGSNVSGRGNNVSGRGNGNGRGIQANISGRGRALSRKYDNNFVAPPPVSRPPLEGGWNWQARGGSAQHTAVQEFPDVEDDVDNASEEENDSDALDDSDDDLASDDYDSDVSQKSHGSRKQNKWFKKFFGSLDSLSIEQINEPQRQWHCPACQNGPGAIDWYNLHPLLAHARTKGARRVKLHRELAEVLEKDLQMRGASVIPCGEIYGQWKGLGEDEKDYEIVWPPMVIIMNTRLDKDDNDKWLGMGNQELLEYFDKYEALRARHSYGPQGHRGMSVLMFESSATGYLEAERLHRELAEMGLDRIAWGQKRSMFSGGVRQLYGFLATKQDLDIFNQHSQGKTRLKFELKSYQEMVVKELRQISEDNQQLNYFKNKLSKQNKHAKVLEESLEIMSEKLRRTAEDNRIVRQRTKMQHEQNREEMDAHDRFFMDSIKQIHERRDAKEENFEMLQQQERAKVVGQQQQNINPSSNDDCRKRAEEVSSFIEFQEKEMEEFVEEREMLIKDQEKKMEDMKKRHHEEIFDLEKEFDEALEQLMYKHGLHNEDD

- binding [5]: no binding
- binding [6]: binds
B3: SGS3 (suppressor of gene silencing 3, yeast two-hybrid fusion) (protein, UniProt Q9LDX1 1-625)
chain: MSSRAGPMSKEKNVQGGYRPEVEQLVQGLAGTRLASSQDDGGEWEVISKKNKNKPGNTSGKTWVSQNSNPPRAWGGQQQGRGSNVSGRGNNVSGRGNGNGRGIQANISGRGRALSRKYDNNFVAPPPVSRPPLEGGWNWQARGGSAQHTAVQEFPDVEDDVDNASEEENDSDALDDSDDDLASDDYDSDVSQKSHGSRKQNKWFKKFFGSLDSLSIEQINEPQRQWHCPACQNGPGAIDWYNLHPLLAHARTKGARRVKLHRELAEVLEKDLQMRGASVIPCGEIYGQWKGLGEDEKDYEIVWPPMVIIMNTRLDKDDNDKWLGMGNQELLEYFDKYEALRARHSYGPQGHRGMSVLMFESSATGYLEAERLHRELAEMGLDRIAWGQKRSMFSGGVRQLYGFLATKQDLDIFNQHSQGKTRLKFELKSYQEMVVKELRQISEDNQQLNYFKNKLSKQNKHAKVLEESLEIMSEKLRRTAEDNRIVRQRTKMQHEQNREEMDAHDRFFMDSIKQIHERRDAKEENFEMLQQQERAKVVGQQQQNINPSSNDDCRKRAEEVSSFIEFQEKEMEEFVEEREMLIKDQEKKMEDMKKRHHEEIFDLEKEFDEALEQLMYKHGLHNEDD
